Test results reported in the supplement of paper PMC10849652.
The other results are listed elsewhere or left out.

Protein sequences, listed by entry. Tags and fused reporters are not part of them. Lines headed by an entry give the natural chain unless they say otherwise; changes in a name come on top.
UniProt Q13155: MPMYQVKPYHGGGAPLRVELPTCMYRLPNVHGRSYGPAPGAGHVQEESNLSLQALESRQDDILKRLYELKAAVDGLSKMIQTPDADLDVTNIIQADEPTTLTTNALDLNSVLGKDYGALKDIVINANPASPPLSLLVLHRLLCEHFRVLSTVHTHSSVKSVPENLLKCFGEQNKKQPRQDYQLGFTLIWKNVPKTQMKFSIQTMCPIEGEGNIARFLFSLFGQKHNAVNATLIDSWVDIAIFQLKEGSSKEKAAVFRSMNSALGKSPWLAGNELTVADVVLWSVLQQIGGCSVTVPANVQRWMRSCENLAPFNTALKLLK
UniProt Q04771: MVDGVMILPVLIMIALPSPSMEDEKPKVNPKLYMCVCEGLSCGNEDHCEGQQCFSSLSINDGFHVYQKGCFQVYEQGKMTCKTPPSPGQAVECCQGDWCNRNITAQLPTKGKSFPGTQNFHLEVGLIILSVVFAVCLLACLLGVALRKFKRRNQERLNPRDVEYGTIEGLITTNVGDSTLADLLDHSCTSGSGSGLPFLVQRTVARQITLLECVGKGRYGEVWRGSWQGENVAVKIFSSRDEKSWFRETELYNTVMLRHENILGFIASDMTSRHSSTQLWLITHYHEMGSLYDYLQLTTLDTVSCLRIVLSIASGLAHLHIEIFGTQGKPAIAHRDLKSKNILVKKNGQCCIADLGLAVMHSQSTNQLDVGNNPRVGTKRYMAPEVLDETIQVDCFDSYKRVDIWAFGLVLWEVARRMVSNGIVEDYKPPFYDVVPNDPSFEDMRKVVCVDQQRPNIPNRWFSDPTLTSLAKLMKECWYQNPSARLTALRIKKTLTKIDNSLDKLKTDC
UniProt Q8TED9: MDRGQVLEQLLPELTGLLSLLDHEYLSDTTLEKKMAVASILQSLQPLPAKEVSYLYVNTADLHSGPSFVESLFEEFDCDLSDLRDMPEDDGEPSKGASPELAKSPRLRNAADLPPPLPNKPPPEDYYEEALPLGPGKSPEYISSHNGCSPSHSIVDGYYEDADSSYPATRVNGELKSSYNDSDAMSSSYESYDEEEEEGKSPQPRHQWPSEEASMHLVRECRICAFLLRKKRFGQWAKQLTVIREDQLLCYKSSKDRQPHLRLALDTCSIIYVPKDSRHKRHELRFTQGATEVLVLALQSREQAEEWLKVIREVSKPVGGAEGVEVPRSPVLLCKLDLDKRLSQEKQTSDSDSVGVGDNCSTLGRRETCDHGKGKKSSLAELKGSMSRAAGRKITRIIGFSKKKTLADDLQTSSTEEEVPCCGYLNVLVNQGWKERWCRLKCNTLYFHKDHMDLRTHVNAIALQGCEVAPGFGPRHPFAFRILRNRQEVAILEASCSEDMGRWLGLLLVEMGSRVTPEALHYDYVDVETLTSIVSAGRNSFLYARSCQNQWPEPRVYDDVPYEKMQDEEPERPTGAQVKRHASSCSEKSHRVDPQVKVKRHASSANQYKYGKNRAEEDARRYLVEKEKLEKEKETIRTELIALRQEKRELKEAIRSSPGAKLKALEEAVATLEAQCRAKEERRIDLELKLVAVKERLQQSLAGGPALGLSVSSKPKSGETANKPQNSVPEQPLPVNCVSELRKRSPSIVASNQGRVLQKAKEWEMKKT
UniProt O60266: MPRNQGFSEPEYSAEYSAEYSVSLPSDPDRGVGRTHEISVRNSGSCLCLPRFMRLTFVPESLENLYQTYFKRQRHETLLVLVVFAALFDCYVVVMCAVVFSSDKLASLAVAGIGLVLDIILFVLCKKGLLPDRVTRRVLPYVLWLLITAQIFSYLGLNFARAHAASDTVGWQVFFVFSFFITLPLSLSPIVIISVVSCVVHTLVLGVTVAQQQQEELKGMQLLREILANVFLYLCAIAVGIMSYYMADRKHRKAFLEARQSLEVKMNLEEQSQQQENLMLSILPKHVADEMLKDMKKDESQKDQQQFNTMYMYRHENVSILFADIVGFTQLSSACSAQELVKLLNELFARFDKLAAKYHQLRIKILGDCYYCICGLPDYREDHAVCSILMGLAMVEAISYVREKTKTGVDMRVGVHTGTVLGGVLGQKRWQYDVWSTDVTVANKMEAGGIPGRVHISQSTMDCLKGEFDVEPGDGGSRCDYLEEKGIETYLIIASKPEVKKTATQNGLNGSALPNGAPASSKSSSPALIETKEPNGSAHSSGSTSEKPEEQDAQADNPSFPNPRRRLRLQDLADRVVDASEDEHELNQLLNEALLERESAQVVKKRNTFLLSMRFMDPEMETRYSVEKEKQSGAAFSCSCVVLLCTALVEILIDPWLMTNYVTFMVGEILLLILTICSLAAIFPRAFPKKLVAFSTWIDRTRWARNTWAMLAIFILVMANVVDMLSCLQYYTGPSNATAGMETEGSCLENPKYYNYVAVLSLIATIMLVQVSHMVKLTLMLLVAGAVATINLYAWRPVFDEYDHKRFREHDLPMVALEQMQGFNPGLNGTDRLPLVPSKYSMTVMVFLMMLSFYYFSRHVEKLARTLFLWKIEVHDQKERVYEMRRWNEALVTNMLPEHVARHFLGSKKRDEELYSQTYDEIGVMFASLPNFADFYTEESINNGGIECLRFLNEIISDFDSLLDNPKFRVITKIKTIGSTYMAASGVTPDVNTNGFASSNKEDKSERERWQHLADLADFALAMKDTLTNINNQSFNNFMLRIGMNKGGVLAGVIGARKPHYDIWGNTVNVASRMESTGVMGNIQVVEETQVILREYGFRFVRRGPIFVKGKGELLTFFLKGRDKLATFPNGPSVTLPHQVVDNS
UniProt Q8WV93: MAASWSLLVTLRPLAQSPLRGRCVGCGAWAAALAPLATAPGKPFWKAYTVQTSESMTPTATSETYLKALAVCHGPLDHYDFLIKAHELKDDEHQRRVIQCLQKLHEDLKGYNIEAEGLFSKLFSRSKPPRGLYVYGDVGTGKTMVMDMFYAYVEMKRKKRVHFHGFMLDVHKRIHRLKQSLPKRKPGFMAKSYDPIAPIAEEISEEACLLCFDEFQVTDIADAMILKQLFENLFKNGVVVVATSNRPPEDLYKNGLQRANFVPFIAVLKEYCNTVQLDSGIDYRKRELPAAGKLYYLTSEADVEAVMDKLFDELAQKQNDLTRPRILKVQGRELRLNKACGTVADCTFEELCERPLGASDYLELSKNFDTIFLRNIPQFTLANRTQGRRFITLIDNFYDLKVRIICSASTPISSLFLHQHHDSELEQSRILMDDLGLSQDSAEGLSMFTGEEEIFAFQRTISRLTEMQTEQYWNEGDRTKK
UniProt Q6UY14: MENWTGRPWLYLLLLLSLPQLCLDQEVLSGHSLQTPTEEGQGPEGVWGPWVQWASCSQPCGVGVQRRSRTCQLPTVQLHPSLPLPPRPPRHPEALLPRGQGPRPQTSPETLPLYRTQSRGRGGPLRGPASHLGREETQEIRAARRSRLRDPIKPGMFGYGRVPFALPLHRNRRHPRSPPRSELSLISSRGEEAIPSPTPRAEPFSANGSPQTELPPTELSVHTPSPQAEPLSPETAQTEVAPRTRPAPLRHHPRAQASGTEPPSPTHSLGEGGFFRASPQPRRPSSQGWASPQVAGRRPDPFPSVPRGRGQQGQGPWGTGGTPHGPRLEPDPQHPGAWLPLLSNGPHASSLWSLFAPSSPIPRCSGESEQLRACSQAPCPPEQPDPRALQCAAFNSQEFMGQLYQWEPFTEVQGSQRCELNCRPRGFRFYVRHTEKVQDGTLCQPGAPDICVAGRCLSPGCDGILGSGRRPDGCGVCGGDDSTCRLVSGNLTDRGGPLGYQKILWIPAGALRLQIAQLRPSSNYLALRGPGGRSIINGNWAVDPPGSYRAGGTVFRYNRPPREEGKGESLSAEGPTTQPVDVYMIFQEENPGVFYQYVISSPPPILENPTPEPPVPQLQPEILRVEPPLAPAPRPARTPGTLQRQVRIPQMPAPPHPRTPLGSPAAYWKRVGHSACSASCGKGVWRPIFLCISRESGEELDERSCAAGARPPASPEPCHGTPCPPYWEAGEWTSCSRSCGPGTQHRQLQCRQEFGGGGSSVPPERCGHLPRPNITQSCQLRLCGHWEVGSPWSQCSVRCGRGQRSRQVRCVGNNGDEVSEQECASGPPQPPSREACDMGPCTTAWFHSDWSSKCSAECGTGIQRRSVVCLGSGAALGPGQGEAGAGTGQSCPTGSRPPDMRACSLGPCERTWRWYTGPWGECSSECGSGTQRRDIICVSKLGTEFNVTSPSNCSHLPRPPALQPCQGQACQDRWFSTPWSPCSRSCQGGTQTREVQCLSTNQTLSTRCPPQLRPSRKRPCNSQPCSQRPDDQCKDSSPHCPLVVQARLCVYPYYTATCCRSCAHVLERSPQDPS
UniProt Q9NRZ5: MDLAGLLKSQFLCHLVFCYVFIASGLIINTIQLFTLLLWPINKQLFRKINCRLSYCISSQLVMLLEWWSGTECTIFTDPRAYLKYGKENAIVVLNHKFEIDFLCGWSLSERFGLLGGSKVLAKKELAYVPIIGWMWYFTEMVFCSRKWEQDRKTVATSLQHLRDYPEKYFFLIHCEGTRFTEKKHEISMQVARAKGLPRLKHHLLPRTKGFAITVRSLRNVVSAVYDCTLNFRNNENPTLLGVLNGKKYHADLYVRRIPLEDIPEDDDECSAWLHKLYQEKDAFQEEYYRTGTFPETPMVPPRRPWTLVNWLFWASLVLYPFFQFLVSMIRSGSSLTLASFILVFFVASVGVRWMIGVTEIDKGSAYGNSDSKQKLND
UniProt Q9BUB4: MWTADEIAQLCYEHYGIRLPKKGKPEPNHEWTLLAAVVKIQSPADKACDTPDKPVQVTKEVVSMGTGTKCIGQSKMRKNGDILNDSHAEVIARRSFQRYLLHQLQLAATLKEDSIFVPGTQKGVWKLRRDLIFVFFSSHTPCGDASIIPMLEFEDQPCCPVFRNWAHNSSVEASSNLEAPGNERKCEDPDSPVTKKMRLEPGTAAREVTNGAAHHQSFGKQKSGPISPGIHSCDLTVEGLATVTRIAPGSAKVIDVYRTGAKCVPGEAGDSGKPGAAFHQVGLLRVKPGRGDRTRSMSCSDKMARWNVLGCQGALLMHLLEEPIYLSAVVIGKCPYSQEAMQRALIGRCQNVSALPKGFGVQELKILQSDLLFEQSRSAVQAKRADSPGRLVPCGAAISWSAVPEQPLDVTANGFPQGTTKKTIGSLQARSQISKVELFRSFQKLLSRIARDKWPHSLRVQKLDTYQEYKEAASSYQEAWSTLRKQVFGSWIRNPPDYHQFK
UniProt P13686: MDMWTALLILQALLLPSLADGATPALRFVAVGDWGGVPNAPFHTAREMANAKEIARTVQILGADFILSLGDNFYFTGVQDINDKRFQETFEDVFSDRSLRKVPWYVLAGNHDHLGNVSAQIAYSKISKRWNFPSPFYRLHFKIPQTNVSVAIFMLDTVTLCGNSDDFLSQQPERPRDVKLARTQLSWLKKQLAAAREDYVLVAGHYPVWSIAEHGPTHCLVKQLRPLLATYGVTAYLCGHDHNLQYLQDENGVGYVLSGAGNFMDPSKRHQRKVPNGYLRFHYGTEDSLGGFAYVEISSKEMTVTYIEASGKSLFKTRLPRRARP
UniProt O60218, whole entry, looked up: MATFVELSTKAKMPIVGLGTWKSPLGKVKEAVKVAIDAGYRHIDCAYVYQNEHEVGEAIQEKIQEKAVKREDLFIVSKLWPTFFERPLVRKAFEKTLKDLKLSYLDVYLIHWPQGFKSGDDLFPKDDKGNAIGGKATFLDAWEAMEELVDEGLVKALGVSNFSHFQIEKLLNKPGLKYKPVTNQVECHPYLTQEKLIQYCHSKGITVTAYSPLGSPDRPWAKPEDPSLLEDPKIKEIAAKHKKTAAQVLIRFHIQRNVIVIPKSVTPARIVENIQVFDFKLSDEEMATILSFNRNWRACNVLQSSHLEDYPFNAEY
UniProt Q9UEY8: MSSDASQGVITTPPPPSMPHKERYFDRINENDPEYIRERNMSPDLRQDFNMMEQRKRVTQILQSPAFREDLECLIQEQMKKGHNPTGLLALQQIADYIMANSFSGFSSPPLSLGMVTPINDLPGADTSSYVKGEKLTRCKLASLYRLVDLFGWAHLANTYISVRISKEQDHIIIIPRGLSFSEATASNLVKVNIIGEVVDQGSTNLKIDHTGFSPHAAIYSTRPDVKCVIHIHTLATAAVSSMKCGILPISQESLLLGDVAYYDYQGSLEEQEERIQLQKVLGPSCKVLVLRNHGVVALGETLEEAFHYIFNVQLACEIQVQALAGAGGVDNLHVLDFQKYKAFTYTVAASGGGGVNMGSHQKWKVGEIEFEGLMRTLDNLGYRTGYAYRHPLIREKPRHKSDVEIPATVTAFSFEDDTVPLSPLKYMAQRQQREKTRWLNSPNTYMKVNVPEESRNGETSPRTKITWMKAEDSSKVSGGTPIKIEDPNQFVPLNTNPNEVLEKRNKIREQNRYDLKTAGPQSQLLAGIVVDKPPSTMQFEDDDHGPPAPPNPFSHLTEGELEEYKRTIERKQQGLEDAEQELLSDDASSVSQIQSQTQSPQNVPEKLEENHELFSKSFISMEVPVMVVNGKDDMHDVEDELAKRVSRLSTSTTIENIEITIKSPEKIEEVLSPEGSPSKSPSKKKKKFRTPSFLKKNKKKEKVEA

Experiments:
Assay in all cases: log2 fold change, soluble protein after heating vs DMSO (PISA); higher = thermal stabilisation; K562 lysate, 10 uM; active = over 0.2 and 3.5 SD of the protein, either way, in both replicates (recomputed)
[1] = compound: CCCS(=O)(=O)Nc1ccc(F)c(C(=O)c2c[nH]c3ncc(Cl)cc23)c1F
How it was run: (§1)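 Thermal stability, expressed as log-two fold change relative to solvent controls, is given from duplicates. Crude K562 extract in PBS pH 7.4 with 1 mM MgCl2, at 1 mg/mL protein, was treated with 10 μM compound for 30 min and heated in aliquots for 3 min across 48°C-58°C. After pooling, adjustment to 0.5% NP-40 at 4°C and centrifugation at 21,000xg for 90 min, supernatant protein was measured by TMTpro 16plex LC-MS/MS with channel sums equalised.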

barasertib = compound: CCN(CCCOc1ccc2c(Nc3cc(CC(=O)Nc4cccc(F)c4)[nH]n3)ncnc2c1)CCOP(=O)(O)O [barasertib]
How it was run: as §1

volasertib = compound: CC[C@@H]1C(=O)N(C)c2cnc(Nc3ccc(C(=O)N[C@H]4CC[C@H](N5CCN(CC6CC6)CC5)CC4)cc3OC)nc2N1C(C)C [volasertib]
How it was run: as §1

alisertib = compound: COc1cc(Nc2ncc3c(n2)-c2ccc(Cl)cc2C(c2c(F)cccc2OC)=NC3)ccc1C(=O)O [alisertib]
How it was run: as §1

[2] = compound: COc1cc2nc(-c3cc(F)ccc3O)nc(N[C@@H]3CNC[C@H]3C(C)(C)O)c2cc1OC
How it was run: as §1

gefitinib = compound: COc1cc2ncnc(Nc3ccc(F)c(Cl)c3)c2cc1OCCCN1CCOCC1 [gefitinib]
How it was run: as §1

[3] = compound: CCn1c(C(=O)N(C2CC2)C2CC2)cc2c3c(ncn3C)c(Nc3cc(C)n(C)n3)nc21
How it was run: as §1

saracatinib = compound: CN1CCN(CCOc2cc(OC3CCOCC3)c3c(Nc4c(Cl)ccc5c4OCO5)ncnc3c2)CC1 [saracatinib]
How it was run: as §1

sotrastaurin = compound: CN1CCN(c2nc(C3=C(c4c[nH]c5ccccc45)C(=O)NC3=O)c3ccccc3n2)CC1 [sotrastaurin]
How it was run: as §1

Tubastatin A = compound: CN1CCc2c(c3ccccc3n2Cc2ccc(C(=O)NO)cc2)C1 [Tubastatin A]
How it was run: as §1

[4] = compound: CNC(=O)C1=CC=CC=C1NC2=NC(=NC=C2Cl)NC3=C(C=C(C=C3)N4CCOCC4)OC
How it was run: as §1

[5] = compound: CNc1nc(-c2ccc3c(N)n[nH]c3c2)cc(N2C[C@@H](C(=O)NC3CCCCC3)CC[C@H]2C)n1
How it was run: as §1

[6] = compound: CC[C@@H]1C(=O)N(C)c2cnc(Nc3ccc(C(=O)NC4CCN(C)CC4)cc3OC)nc2N1C1CCCC1
How it was run: as §1

encorafenib = compound: COC(=O)N[C@@H](C)CNc1nccc(-c2cn(C(C)C)nc2-c2cc(Cl)cc(NS(C)(=O)=O)c2F)n1 [encorafenib]
How it was run: as §1

[7] = compound: COC(=O)[C@H](CCSC)NC(=O)C1=C(C=C(C=C1)NC[C@H](CS)N)C2=CC=CC=C2
How it was run: as §1

[8] = compound: CCn1cc(-c2ccnc3[nH]c(-c4cccc(CN(C)C)c4)cc23)c(-c2ccc(NC(=O)N(C)C)cc2)n1
How it was run: as §1

[9] = compound: CN1CCC(CNc2ccc3ncc(-c4cccc(OC(F)(F)F)c4)n3n2)CC1
How it was run: as §1

alvocidib = compound: CN1CC[C@H](c2c(O)cc(O)c3c(=O)cc(-c4ccccc4Cl)oc23)[C@H](O)C1 [alvocidib]
How it was run: as §1

Measured: log2 fold change

ADK, A0A5F9ZH76
inactive: [1] -0.174 | barasertib -0.019 | volasertib 0.167 | alisertib 0.008 | [2] -0.063 | gefitinib 0.072

AKAP17A (UniProt Q02040)
inactive: [1] 0.29 | volasertib -0.163 | [3] -0.01 | saracatinib -0.094 | sotrastaurin 0.016 | Tubastatin A -0.103 | [4] -0.066 | [5] 0.186 | [2] -0.107

ADCK5 (UniProt Q3MIX3)
inactive: [1] 0.111 | [6] -0.008 | volasertib -0.039 | saracatinib 0.141 | sotrastaurin 0.056 | [5] 0.127 | encorafenib 0.047 | [7] 0.114 | alisertib -0.062 | [2] 0.022 | gefitinib -0.051

ACSS3 (UniProt Q9H6R3)
inactive: barasertib -0.067

AKR7L (UniProt Q8NHP1)
inactive: [1] 0.029 | volasertib -0.026 | saracatinib 0.036 | sotrastaurin 0.041 | [5] 0.071 | alisertib -0.08 | [2] -0.012 | gefitinib -0.116

AIMP2 isoform 2 (UniProt Q13155)
inactive: [1] -0.134 | barasertib 0.038 | volasertib 0.047 | [3] -0.027 | sotrastaurin 0.014 | Tubastatin A -0.038 | [2] 0.115

AJUBA (UniProt Q96IF1)
inactive: saracatinib 0.005 | sotrastaurin -0.102 | [5] 0.065

ACVR1 (UniProt Q04771)
inactive: barasertib -0.115 | [8] -0.244 | alvocidib 0.086 | [5] -0.056 | alisertib 0.069 | gefitinib 0.158
active: [9] 0.815

AHDC1 (UniProt Q5TGY3)
inactive: barasertib -0.268

ADAM15 (UniProt Q13444)
inactive: [1] 0.067 | barasertib -0.121 | volasertib 0.049 | [3] -0.013 | [8] -0.052 | [9] 0.081 | saracatinib 0.009 | sotrastaurin -0.065 | alvocidib 0 | Tubastatin A -0.026 | [4] 0.069 | [5] 0.004 | [2] 0.054

AFAP1L1 (UniProt Q8TED9)
inactive: [1] 0.116 | barasertib 0.113 | [6] 0.158 | volasertib 0.06 | saracatinib -0.035 | sotrastaurin 0.086 | [4] -0.013 | [5] 0.283 | encorafenib 0.09 | [7] 0.053 | [2] 0.164

ACSS1 (UniProt Q9NUB1)
inactive: [1] 0.099 | barasertib 0.101 | [6] 0.141 | volasertib 0 | [3] -0.045 | [8] -0.158 | [9] -0.02 | saracatinib -0.005 | sotrastaurin 0.081 | alvocidib -0.01 | Tubastatin A 0.018 | [5] 0.073 | encorafenib -0.009 | [7] 0.013 | alisertib -0.05 | [2] 0.066 | gefitinib -0.116

ADCY3 (UniProt O60266)
inactive: [3] 0.004 | saracatinib 0.035 | Tubastatin A -0.03 | [4] -0.01 | [5] -0.067

AHCTF1 isoform 2 (UniProt Q8WYP5)
inactive: [1] 0.063 | volasertib -0.043 | [3] 0.127 | [8] 0.001 | [9] 0.111 | alvocidib -0.045 | Tubastatin A 0.02 | [4] 0.099 | [2] 0.082

ACSL6 isoform 1 (UniProt Q9UKU0)
inactive: [1] 0.012 | barasertib 0.025 | volasertib -0.075 | [3] 0.02 | [8] 0.047 | [9] -0.321 | alvocidib 0.099 | Tubastatin A -0.24 | [4] -0.049 | [2] -0.125

AKAP10 (UniProt O43572)
inactive: [1] 0.197 | barasertib 0.141 | [6] 0.035 | volasertib -0.128 | [3] 0.31 | saracatinib 0.022 | sotrastaurin 0.052 | Tubastatin A -0.3 | [4] -0.055 | [5] -0.143 | encorafenib 0.058 | [7] -0.047 | alisertib -0.074 | [2] -0.072 | gefitinib 0.429

AGO2 (UniProt E5RJY2)
inactive: [1] 0.082 | volasertib -0.005 | [8] 0.51 | [9] -0.054 | alvocidib -0.147 | alisertib 0.081 | [2] -0.005 | gefitinib -0.191

AEBP2 (UniProt Q6ZN18)
inactive: [1] 0.098 | barasertib 0.184 | volasertib 0.029 | [3] -0.044 | saracatinib 0.021 | sotrastaurin 0.114 | Tubastatin A -0.074 | [4] -0.038 | [5] 0.073 | [2] 0.017

2 entries picked at random from those above:
AKAP10 (UniProt O43572)
inactive: [1] 0.197 | barasertib 0.141 | [6] 0.035 | volasertib -0.128 | [3] 0.31 | saracatinib 0.022 | sotrastaurin 0.052 | Tubastatin A -0.3 | [4] -0.055 | [5] -0.143 | encorafenib 0.058 | [7] -0.047 | alisertib -0.074 | [2] -0.072 | gefitinib 0.429

AHCTF1 isoform 2 (UniProt Q8WYP5)
inactive: [1] 0.063 | volasertib -0.043 | [3] 0.127 | [8] 0.001 | [9] 0.111 | alvocidib -0.045 | Tubastatin A 0.02 | [4] 0.099 | [2] 0.082

Further records follow.

ADCY7 (UniProt P51828)
inactive: saracatinib -0.12 | [4] 0.196 | [5] -0.06 | alisertib 0.002 | gefitinib -0.053

AFG1L (UniProt Q8WV93)
inactive: [1] -0.021 | [6] -0.132 | volasertib -0.01 | [3] 0.013 | saracatinib 0.028 | sotrastaurin 0.059 | Tubastatin A -0.112 | [4] -0.02 | [5] 0.015 | encorafenib -0.274 | [7] 0.154 | alisertib -0.01 | [2] 0.026 | gefitinib 0.073

ADAMTSL4 isoform 3 (UniProt Q6UY14)
inactive: [1] 0.001 | barasertib 0.096 | volasertib 0 | [3] -0.073 | [8] -0.094 | [9] -0.088 | saracatinib -0.062 | sotrastaurin 0.031 | alvocidib 0.054 | Tubastatin A -0.002 | [4] -0.012 | [5] 0.297 | alisertib -0.034 | [2] -0.013 | gefitinib 0.06

AGPAT4 (UniProt Q9NRZ5)
inactive: barasertib 0.039 | [6] -0.085 | [3] -0.045 | [8] -0.255 | [9] -0.057 | sotrastaurin 0.023 | alvocidib -0.088 | Tubastatin A 0.056 | [4] 0.094 | encorafenib 0.153 | [7] -0.27

ADAT1 (UniProt Q9BUB4)
inactive: barasertib 0.094

ACP5 (UniProt P13686)
inactive: [4] -0.487

AKR1B10 (UniProt O60218)
inactive: [3] -0.588 | saracatinib 1.84 | Tubastatin A -0.006 | [5] -0.116

ACTG1 (UniProt K7EM38)
inactive: [1] -0.259 | [6] -0.208 | volasertib -0.124 | encorafenib -0.286 | [7] 0.142 | [2] 0.099

ADD3 isoform 2 (UniProt Q9UEY8)
inactive: sotrastaurin 0.038

ACTN4 (UniProt H7C144)
inactive: [3] 0.003 | saracatinib 0.019 | Tubastatin A -0.014 | [5] -0.111

AGTRAP isoform 2 (UniProt Q6RW13)
inactive: [1] 0.064 | barasertib 0.088 | volasertib -0.029 | [8] -0.2 | [9] 0.174 | alvocidib -0.104 | [2] -0.054

ACTB (UniProt C9JUM1)
inactive: [1] 0.054 | barasertib 0.143 | volasertib -0.043 | alisertib -0.057 | [2] 0.05 | gefitinib -0.294

AFDN (UniProt H0Y948)
inactive: sotrastaurin -0.136

ACOX3 (UniProt O15254)
inactive: barasertib -0.13 | [6] 0 | saracatinib 0.054 | [5] 0.021 | encorafenib -0.061 | [7] 0.113
